Measured values published in patent US20120316107A1.
No constants are given. Whether binding was seen depends on the method and setting. Some results given as binding are weak or reduced against the parent protein; the word gives no strength.

The chains behind the UniProt entries cited, without tags or fusion partners. Residues count along the entry.
UniProt P06213, residues 28-1382: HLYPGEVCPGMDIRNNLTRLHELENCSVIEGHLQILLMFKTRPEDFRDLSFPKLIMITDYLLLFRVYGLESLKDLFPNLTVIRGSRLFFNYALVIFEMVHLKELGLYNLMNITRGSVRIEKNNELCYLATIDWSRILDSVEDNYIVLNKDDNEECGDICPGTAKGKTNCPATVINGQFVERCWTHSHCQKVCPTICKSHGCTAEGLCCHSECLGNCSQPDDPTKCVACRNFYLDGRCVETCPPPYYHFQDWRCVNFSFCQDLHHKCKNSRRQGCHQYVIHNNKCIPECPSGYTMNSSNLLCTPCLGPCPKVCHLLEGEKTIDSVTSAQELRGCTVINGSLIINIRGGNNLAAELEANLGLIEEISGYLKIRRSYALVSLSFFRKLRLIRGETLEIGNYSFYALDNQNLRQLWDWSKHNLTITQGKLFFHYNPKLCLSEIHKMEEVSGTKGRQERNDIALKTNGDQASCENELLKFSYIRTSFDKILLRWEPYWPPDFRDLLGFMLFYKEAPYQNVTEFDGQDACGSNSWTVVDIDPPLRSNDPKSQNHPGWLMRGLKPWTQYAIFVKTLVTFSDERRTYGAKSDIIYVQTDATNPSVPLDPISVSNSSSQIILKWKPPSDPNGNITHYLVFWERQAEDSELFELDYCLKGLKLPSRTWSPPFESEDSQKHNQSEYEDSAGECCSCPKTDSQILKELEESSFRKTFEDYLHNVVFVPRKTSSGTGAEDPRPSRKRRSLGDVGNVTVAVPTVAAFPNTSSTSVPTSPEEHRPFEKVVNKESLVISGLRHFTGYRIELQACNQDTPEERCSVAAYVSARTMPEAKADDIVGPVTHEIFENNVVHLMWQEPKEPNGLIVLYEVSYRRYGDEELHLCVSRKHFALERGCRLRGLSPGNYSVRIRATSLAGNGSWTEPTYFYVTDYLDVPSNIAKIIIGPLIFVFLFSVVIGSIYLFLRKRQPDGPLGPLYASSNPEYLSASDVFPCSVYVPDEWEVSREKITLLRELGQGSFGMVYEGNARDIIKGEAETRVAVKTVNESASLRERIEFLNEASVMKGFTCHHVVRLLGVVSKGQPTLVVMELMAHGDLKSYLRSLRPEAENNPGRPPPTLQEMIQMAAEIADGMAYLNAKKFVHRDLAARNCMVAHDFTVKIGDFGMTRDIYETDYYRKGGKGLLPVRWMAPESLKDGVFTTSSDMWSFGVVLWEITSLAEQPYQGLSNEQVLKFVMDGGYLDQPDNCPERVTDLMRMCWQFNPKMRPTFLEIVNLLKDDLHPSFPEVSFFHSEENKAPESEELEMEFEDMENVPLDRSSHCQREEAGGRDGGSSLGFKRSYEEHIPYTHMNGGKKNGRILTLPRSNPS

Molecular target: human insulin receptor in a human placental membrane preparation (mixture of isoforms A and B) (human) (UniProt P06213)
Assay: displacement of 125I-insulin from human placental membranes

- binding: binds
Substance: 57 mer single-chain insulin analogue (His^A8, Asp^B10, Asp^B28, Pro^B29; GGGPRR linker) (from UniProt P30407 25-110) (ligand)
